In PubChem BioAssay (NCATS):
Inconclusive results, whose numbers are uncertain, are shown with a selection of clear calls. For part of these data: Potencies of inconclusive entries are doubtful fits and often do not repeat. Activity calls are given as the source filed them. The call rests on the fitted dose curve; in most records, active means well fitted curve in the direction sought with a large enough effect; inconclusive means small, poorly fitted or top-dose-only effect, or another doubt; inactive means no such curve, though single readings can be large; an effect the other way counts as inactive or inconclusive.

Assays:
[1] = Quantitative High-Throughput drug screen in 47 multiple myeloma cell lines against the NCATS MIPE library collection: JIM1_ECACC cell viability assay (AID 1918964); settings: JIM1 myeloma viability, CellTiter-Glo ATP luminescence, 48 h; viability (% of DMSO): at 45.8 µM (top of the series)
Summary of the method: (§1)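 qHTS of the MIPE 4.0 collection: 500 myeloma cells/well, 48 h drug exposure at 37C in 5% CO2, then CellTiter-Glo for 5 min at room temperature before luminescence reading.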

[2] = Quantitative High-Throughput drug screen in 47 multiple myeloma cell lines against the NCATS MIPE library collection: Karpas25_ECACC cell viability assay (AID 1918968; further: nearly all actives have a fitted effect of over 35% in size); settings: Karpas25 myeloma viability, CellTiter-Glo ATP, 48 h; viability (% of control): at 45.8 µM (top of the series)
Summary of the method: as §1

[3] = Quantitative High-Throughput drug screen in 47 multiple myeloma cell lines against the NCATS MIPE library collection: KMS12BM_JCRB cell viability assay (AID 1918971); further: nearly all actives have a fitted effect of over 35% in size
Summary of the method: (§2)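 Relative luminescence from CellTiter-Glo served as the viability signal, referenced to DMSO-treated (100%) and cell-free medium (0%) controls. Treatment lasted 48 hours at 37C with 500 cells per well.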

[4] = Quantitative High-Throughput drug screen in 47 multiple myeloma cell lines against the NCATS MIPE library collection: KMS12PE_JCRB cell viability assay (AID 1918972); settings: KMS12PE myeloma viability, CellTiter-Glo ATP, 48 h; viability: at 45.8 µM (top of the series); further: nearly all actives have a fitted effect of over 30% in size
Summary of the method: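 We plated 500 myeloma cells per well, pinned in MIPE 4.0 compounds, and incubated for 48 hours at 37C. ATP was then quantified with CellTiter-Glo, with DMSO and media-only wells defining 100% and 0%.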

[5] = Quantitative High-Throughput drug screen in 47 multiple myeloma cell lines against the NCATS MIPE library collection: KMS20_JCRB cell viability assay (AID 1918973); settings: CellTiter-Glo ATP, 48 h; viability (% of DMSO): at 45.8 µM (top of the series); further: nearly all actives have a fitted effect of over 45% in size
Summary of the method: as §1

[6] = Quantitative High-Throughput drug screen in 47 multiple myeloma cell lines against the NCATS MIPE library collection: KMS21BM_JCRB cell viability assay (AID 1918974); settings: ATP luminescence, 48 h; viability: at 45.8 µM (top of the series) unless noted
Summary of the method: as §1

[7] = Quantitative High-Throughput drug screen in 47 multiple myeloma cell lines against the NCATS MIPE library collection: KMS26_JCRB cell viability assay (AID 1918975); settings: KMS26 myeloma cells viability, CellTiter-Glo ATP, 48 h; viability (% of DMSO): at 45.8 µM (top of the series); further: nearly all actives have a fitted effect of over 45% in size
Summary of the method: as §2

[8] = Quantitative High-Throughput drug screen in 47 multiple myeloma cell lines against the NCATS MIPE library collection: MOLP8_DSMZ cell viability assay (AID 1918977); settings: MOLP8 myeloma viability, CellTiter-Glo ATP luminescence, 48 h; viability (% of control): at 45.8 µM (top of the series); further: nearly all actives have a fitted effect of over 45% in size
Summary of the method: (§3)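 Plated at 500 cells per well, myeloma lines received MIPE 4.0 compounds by pin tool. Following 48 h culture at 37 °C, CellTiter-Glo luminescence gave viability relative to DMSO and media-only controls.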

[9] = Quantitative High-Throughput drug screen in 47 multiple myeloma cell lines against the NCATS MIPE library collection: NCIH929_DSMZ cell viability assay (AID 1918978); further: nearly all actives have a fitted effect of over 35% in size
Summary of the method: as §3

[10] = Quantitative High-Throughput drug screen in 47 multiple myeloma cell lines against the NCATS MIPE library collection: MM1S_ATCC cell viability assay (AID 1918980); further: nearly all actives have a fitted effect of over 45% in size
Summary of the method: as §3

[11] = Quantitative High-Throughput drug screen in 47 multiple myeloma cell lines against the NCATS MIPE library collection: KMS28PE_JCRB cell viability assay (AID 1918983); further: nearly all actives have a fitted effect of over 35% in size
Summary of the method: as §3

[12] = Quantitative High-Throughput drug screen in 47 multiple myeloma cell lines against the NCATS MIPE library collection: KMS27_JCRB cell viability assay (AID 1918970); settings: KMS27 myeloma cells, CellTiter-Glo ATP viability, 48 h; viability (% of DMSO): at 45.8 µM (top of the series); further: nearly all actives have a fitted effect of over 30% in size
Summary of the method: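 Viability inhibition screen, 48 h compound exposure, luminescent ATP read-out.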

[13] = Quantitative High-Throughput drug screen in 47 multiple myeloma cell lines against the NCATS MIPE library collection: OCIMY1_PLB cell viability assay (AID 1918979); further: nearly all actives have a fitted effect of over 35% in size
Summary of the method: as §3

[14] = Quantitative High-Throughput drug screen in 47 multiple myeloma cell lines against the NCATS MIPE library collection: MM1R_ATCC cell viability assay (AID 1918981); further: nearly all actives have a fitted effect of over 35% in size
Summary of the method: as §3

[15] = Quantitative High-Throughput drug screen in 47 multiple myeloma cell lines against the NCATS MIPE library collection: LP1_DSMZ cell viability assay (AID 1918982); further: nearly all actives have a fitted effect of over 35% in size
Summary of the method: as §3

[16] = Quantitative High-Throughput drug screen in 47 multiple myeloma cell lines against the NCATS MIPE library collection: JJN3_DSMZ cell viability assay (AID 1918966; further: nearly all actives have a fitted effect of over 50% in size); settings: JJN3 myeloma cells viability, CellTiter-Glo ATP, 48 h; viability, % of DMSO: at 45.8 µM (top of the series)
Summary of the method: as §1

[17] = Quantitative High-Throughput drug screen in 47 multiple myeloma cell lines against the NCATS MIPE library collection: H1112_PLB cell viability assay (AID 1918967; further: nearly all actives have a fitted effect of over 30% in size); settings: H1112 myeloma cells viability, ATP luminescence, 48 h; viability: at 45.8 µM (top of the series)
Summary of the method: as §1

[18] = Quantitative High-Throughput drug screen in 47 multiple myeloma cell lines against the NCATS MIPE library collection: MMM1_PLB cell viability assay (AID 1918976); further: nearly all actives have a fitted effect of over 35% in size
Summary of the method: as §3
Potency means the concentration at half of the fitted maximal effect.

N#CC(c1ccnc(NCCc2cccnc2)n1)c1nc2ccccc2s1 (configuration not stated)
active: Potency [1] 5.9 µM | Potency [2] 7.43 µM | Potency [4] 4.18 µM | Potency [5] 14.8 µM | Potency [9] 7.43 µM
inconclusive: Potency [3] 37.2 µM [cytotoxic, single point] | Potency [6] 4.69 µM [cytotoxic, full curve, poor fit] | Potency [7] 37.2 µM [cytotoxic, single point] | Potency [10] 23.5 µM [cytotoxic, partial curve, poor fit] | Potency [11] 37.2 µM [cytotoxic, single point]
inactive: Potency [8]

CC(=O)OCC(=O)[C@@]1(O)[C@H](C)C[C@H]2[C@@H]3C=C(C)C4=Cc5c(cnn5-c5ccccc5)C[C@]4(C)[C@@H]3[C@@H](O)C[C@@]21C
inconclusive: Potency [12] 11.8 µM [cytotoxic, single point] | Potency [5] 14.8 µM [cytotoxic, partial curve, poor fit] | Potency [6] 26.4 µM [rising, single point] | Potency [8] 16.6 µM [cytotoxic, partial curve] | Potency [15] 11.8 µM [cytotoxic, partial curve]
active: Potency [1] 9.35 µM | Potency [3] 16.6 µM | Potency [13] 9.35 µM | Potency [10] 0.0132 µM | Potency [14] 9.35 µM

CC(C)C[C@H](NC(=O)[C@H](CCc1ccccc1)NC(=O)CN1CCOCC1)C(=O)N[C@@H](Cc1ccccc1)C(=O)N[C@@H](CC(C)C)C(=O)[C@@]1(C)CO1
inconclusive: viability (% of DMSO) [5] 5.78% [cytotoxic]
active: Potency [1] 0.0074 µM | Potency [16] 0.0074 µM | Potency [7] 0.0132 µM | Potency [8] 0.0019 µM | Potency [13] 0.0093 µM | Potency [10] 0.0023 µM | Potency [15] 0.0093 µM

COC1=C(OC)C(=O)C(CCCCCCCCCCO)=C(C)C1=O
inconclusive: Potency [1] 20.9 µM [cytotoxic, partial curve, poor fit] | Potency [17] 20.9 µM [cytotoxic, partial curve] | Potency [5] 23.5 µM [cytotoxic, partial curve, poor fit] | Potency [6] 23.5 µM [cytotoxic, partial curve, poor fit] | Potency [8] 23.5 µM [cytotoxic, partial curve, poor fit] | Potency [10] 26.4 µM [cytotoxic, single point] | Potency [14] 26.4 µM [cytotoxic, single point]
active: Potency [12] 18.7 µM | Potency [18] 20.9 µM

O=C(C=Cc1cccnc1)NCCCCC1CCN(C(=O)c2ccccc2)CC1
inconclusive: Potency [1] 0.0166 µM [cytotoxic, full curve, poor fit] | Potency [5] 4.69 µM [cytotoxic, partial curve, poor fit] | Potency [18] 0.0132 µM [rising, full curve, poor fit] | Potency [13] 0.0743 µM [cytotoxic, full curve, poor fit] | Potency [14] 0.0743 µM [cytotoxic, full curve] | Potency [15] 0.0332 µM [cytotoxic, full curve, poor fit]
active: Potency [16] 0.0209 µM | Potency [6] 0.0166 µM
inactive: Potency [8]

OCCCNc1cc(-c2ccnc(Nc3cccc(Cl)c3)n2)ccn1
active: Potency [1] 0.0526 µM | Potency [12] 0.0418 µM | Potency [3] 0.132 µM | Potency [5] 0.0418 µM | Potency [6] 0.0372 µM | Potency [15] 0.105 µM
inconclusive: Potency [8] 0.0743 µM [cytotoxic, full curve]

COc1cc2nccc(Oc3ccc(NC(=O)Nc4ccc(F)cc4F)c(F)c3)c2cc1OC
inactive: Potency [1] | Potency [4]
active: Potency [15] 9.35 µM
inconclusive: Potency [12] 11.8 µM [rising, single point] | Potency [5] 3.72 µM [cytotoxic, full curve, poor fit] | Potency [6] 9.35 µM [rising, full curve] | Potency [7] 18.7 µM [cytotoxic, partial curve, poor fit] | Potency [8] 20.9 µM [cytotoxic, partial curve, poor fit] | Potency [13] 18.7 µM [cytotoxic, partial curve, poor fit] | Potency [10] 26.4 µM [cytotoxic, single point]

COc1cc(C(C)=O)ccc1OCCCN1CCC(c2noc3cc(F)ccc23)CC1
active: Potency [5] 16.6 µM | Potency [9] 18.7 µM
inactive: Potency [8]
inconclusive: Potency [1] 37.2 µM [cytotoxic, single point] | Potency [12] 37.2 µM [cytotoxic, single point] | Potency [3] 18.7 µM [cytotoxic, partial curve, poor fit] | Potency [10] 1.05 µM [cytotoxic, partial curve, poor fit] | Potency [15] 13.2 µM [cytotoxic, partial curve]
